PubChem BioAssay AID1259281 | Sanger Institute | 2017

Assay: 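Screen kinases and frequently colorectal-mutated genes for lethal knock-downs and drug partners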 (primary screen)
System: human COLO678 colorectal cancer cell line
Reagent: siRNA pool against human genes
Challenge: anchor drugs at fixed doses: BYL719 1 µM, cetuximab 5 µg/ml or trametinib 10 nM; DMSO vehicle for the siRNA-alone arm
Measured: 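Cell viability compared with non-targeting pool wells, averaged over replicates; knock-down-alone effect also as robust z-score; synergy scores set knock-down plus drug against expected joint effect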
Direction: robust z-score, siRNA alone: higher = more viable cells; strongly negative means essential
Hit rule: 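Called essential (knock-down alone) if knock-down by itself drops cell number to a robust z-score under -3; all others no change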
Calls: active = essential (knock-down alone); inactive = no change
In all, the deposit lists 794 reagents; this is a part drawn at random. 22 of all reagents (2.8%) were called active. 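Calls rest on knock-down alone only; drug synergy scores play no part in them.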 Further read-outs or replicates are left out here. Not given: the amount of reagent, the time to read-out.

Depletion of CDK15 resulted in: robust z-score, siRNA alone 0.473; inactive.
For NEK11 the deposit lists robust z-score, siRNA alone -0.122; inactive.
After knock-down of DNMT3A, the screen gave robust z-score, siRNA alone 0.473; inactive.
STK33 gave robust z-score, siRNA alone 0.473; inactive.
With knock-down of PRKAB1, the record shows robust z-score, siRNA alone 0.473; inactive.
For BMPR2, the values are robust z-score, siRNA alone 0.473; inactive.
After knock-down of PRKACA, the record shows robust z-score, siRNA alone 0.473; inactive.
MAP3K13 showed robust z-score, siRNA alone -1.06; inactive.
After knock-down of TBX3, the record shows robust z-score, siRNA alone 0.473; inactive.
IKBKG scored robust z-score, siRNA alone -0.183; inactive.
Knock-down of PAK4 gave: robust z-score, siRNA alone 0.473; inactive.
Knock-down of HCK came out at: robust z-score, siRNA alone 0.473; inactive.
CDKN1C gave robust z-score, siRNA alone 0.473; inactive.
Against ULK3, the values are robust z-score, siRNA alone 0.473; inactive.
After knock-down of MYLK, the screen gave robust z-score, siRNA alone 0.473; inactive.
Knock-down of ATR came out at: robust z-score, siRNA alone 0.473; inactive.
Depletion of CDK6 came out at: robust z-score, siRNA alone -0.4; inactive.
For CDKL2 the deposit lists robust z-score, siRNA alone 0.473; inactive.
With knock-down of CDKN2C, the screen gave robust z-score, siRNA alone 0.473; inactive.
For PRKDC, the values are robust z-score, siRNA alone -0.202; inactive.
ACVR1 showed robust z-score, siRNA alone 0.473; inactive.
With knock-down of TYK2, the screen gave robust z-score, siRNA alone -0.0418; inactive.
With knock-down of ITSN1, the screen gave robust z-score, siRNA alone 0.473; inactive.
MAP4K2 scored robust z-score, siRNA alone -0.958; inactive.
After knock-down of PGK1 the results were robust z-score, siRNA alone 0.438; inactive.
BCOR showed robust z-score, siRNA alone 0.473; inactive.
TNNI3K gave robust z-score, siRNA alone 0.473; inactive.
CAMK2A showed robust z-score, siRNA alone -0.612; inactive.
